Test results as given in PubChem BioAssay AID504444 (National Center for Advancing Translational Sciences (NCATS), 2011).
Among all 360,000 compounds or so, about 7,500 (2.1%) were called active. The shares of active, inactive and inconclusive entries below differ from those in the screen. The call rests on the fitted dose curve; in most records, active means well fitted inhibition curve with a large enough effect; inconclusive means small, poorly fitted or top-dose-only effect, or effect the other way; inactive means flat fitted curve, though single readings scatter. Where the call is inconclusive, the potency comes from a doubtful curve fit.

assay: Nrf2 qHTS screen for inhibitors; conditions: A549 ARE-Fluc reporter, luciferase luminescence, 18-24 h; activity change, negative = inhibition: at 46 µM (top of the series); further: nearly all actives have a fitted effect of over 60% in size
Summary of the method: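 Reporter: ARE-Fluc in A549. Exposure: 18-24 h, 37 °C, 5% CO2, 5% FBS OPTI-MEM. Readouts: fluorescent cytotoxicity (CellTiter-Fluor), then luminescent Nrf2 signal after BugLite.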
On the % scale 0 is the no-effect control and ±100 the full control effect; potency means the concentration at half of the fitted maximal effect.

Structure (SMILES)	Potency	activity change, negative = inhibition
CCN1CCc2c(sc(NC(=O)c3ccc(S(=O)(=O)N4CCOCC4)cc3)c2C(=O)OC)C1	inconclusive: 3.66 µM [activator, full curve]	–
O=C(C1CCC(CNc2nc(=S)[nH]c3ccccc23)CC1)N1CCN(c2ccccn2)CC1 (configuration not stated)	active: 16.4 µM	–
CCCC[C@@H]1C=C(C(=O)O)[C@H](c2ccc(Cl)c(Cl)c2)N1S(=O)(=O)c1ccc(C)cc1	inconclusive: 7.31 µM [falling, partial curve, poor fit]	–
Cc1ccc(CCNC(=O)c2ccc3c(=O)n(-c4ccccc4)c(=O)[nH]c3c2)cc1	–	inactive: -0.678% [at 9.27 µM]
CC(=O)c1ccc(NC(=O)C2Cc3ccccc3CN2C(=O)c2ccccc2)cc1 (configuration not stated)	inconclusive: 32.6 µM [activator, partial curve, poor fit]	–
COc1ccc(/C=N/NC(=O)c2ccc[nH]2)cc1	inconclusive: 4.11 µM [activator, partial curve]	–
Cc1ccc(S(=O)(=O)N2C[C@@H]3CCCC[C@@H]3[C@@H](C)[C@H]2c2cn(Cc3ccccc3)c3ccccc23)cc1	active: 1.84 µM	–
COc1ccc(C(=O)NC2(C(F)(F)F)NC(=O)N(CCCc3ccccc3)C2=O)c(OC)c1OC (configuration not stated)	inconclusive: 29.1 µM [falling, single point]	–
CCOC(=O)c1c(NC(=O)c2ccccc2C(=O)O)sc2c1CCCC2	inactive	–
CCOc1ccc2[nH]c(=O)c(CN(Cc3cccs3)C(CC)c3nnnn3C(C)(C)CC)cc2c1 (configuration not stated)	inconclusive: 29.1 µM [falling, single point]	–
Cc1ccc(-c2noc(CSc3nnc(Cc4cccs4)n3-c3ccccc3)n2)cc1	inconclusive: 18.4 µM [falling, single point]	–
COc1ccc(-c2ccc3ncnc(NCc4ccc(C)o4)c3c2)cc1OC	inactive	–
Cc1c(C(=O)N(Cc2ccco2)Cc2ccccc2Cl)oc2ccc(F)cc12	inconclusive: 23.1 µM [falling, partial curve]	–
O=S(=O)(c1cccc(S(=O)(=O)N2CCC(n3nnc4ccccc43)CC2)c1)N1CCCCC1	inconclusive: 29.1 µM [falling, single point]	–
CC(C)Oc1ccc(C(=O)Nc2ccc(S(=O)(=O)N3CCN(C)CC3)cc2)cc1	inconclusive: 18.4 µM [falling, partial curve, poor fit]	–
CC(C)CCNC(=O)CN1C(=O)c2cccnc2Sc2ccccc21	inconclusive: 11.6 µM [activator, partial curve, poor fit]	–
COCCn1c(SCC(=O)NC2CCCCC2C)nnc1-c1ccncc1 (configuration not stated)	inconclusive: 6.51 µM [activator, partial curve, poor fit]	–
CN1CCN(Cc2cccc(Oc3ccc(Cl)cc3)c2)CC1	inconclusive: 18.4 µM [activator, single point]	–
CC1Sc2ccc(C(=O)Nc3cc(S(C)(=O)=O)ccc3Cl)cc2NC1=O (configuration not stated)	inconclusive: 6.51 µM [falling, partial curve, poor fit]	–
Cc1ccc(NC(=O)c2ccc(CNS(=O)(=O)c3ccc4c(c3)C(C)(C)C(=O)N4C)cc2)cc1F	active: 23.1 µM	–
Cc1noc(C)c1-c1ccc2ncnc(NCc3ccccc3C(F)(F)F)c2c1	inconclusive: 13 µM [falling, partial curve, poor fit]	–
O=C(NCCN1CCOCC1)Nc1cccc(Cl)c1	inconclusive: 0.651 µM [activator, full curve]	–
CCN1CCN(C(c2ccc(OC)c(OC)c2)c2nnnn2C(C)(C)C)CC1 (configuration not stated)	–	inconclusive: 26.5% [activator]

3 structures already listed, ordered by formula weight, high to low.
Structure (SMILES)	Potency	activity change, negative = inhibition
Cc1ccc(-c2noc(CSc3nnc(Cc4cccs4)n3-c3ccccc3)n2)cc1	inconclusive: 18.4 µM [falling, single point]	–
Cc1ccc(CCNC(=O)c2ccc3c(=O)n(-c4ccccc4)c(=O)[nH]c3c2)cc1	–	inactive: -0.678% [at 9.27 µM]
Cc1c(C(=O)N(Cc2ccco2)Cc2ccccc2Cl)oc2ccc(F)cc12	inconclusive: 23.1 µM [falling, partial curve]	–

Individual results from the entries so far:
Potency with COc1ccc(-c2ccc3ncnc(NCc4ccc(C)o4)c3c2)cc1OC reads inactive
Potency with Cc1ccc(S(=O)(=O)N2C[C@@H]3CCCC[C@@H]3[C@@H](C)[C@H]2c2cn(Cc3ccccc3)c3ccccc23)cc1 reads active: 1.84 µM

The results go on.

Structure (SMILES)	Potency	activity change, negative = inhibition
COc1ccc(/C=C/C(=O)Nc2ccc(-c3nnc4n3CCCCC4)cc2)c(OC)c1	inconclusive: 14.6 µM [falling, partial curve, poor fit]	–
Cc1ccc(NC(=O)Cn2c(=O)c3cccn3c3ccccc32)c(Cl)c1	inconclusive: 9.2 µM [falling, single point]	–
CCOc1ccc(CCNC(=O)CSc2nnnn2-c2ccc(C)cc2C)cc1OCC	inconclusive: 29.1 µM [falling, single point]	–
CCn1cnc2cc(NS(=O)(=O)c3ccc(C)cc3)ccc21	inactive	–
CNc1oc(-c2cccc3ccccc23)nc1C#N	inactive	–
CCOC(=O)C1=C(CN(C)Cc2ccccc2)NC(=O)NC1c1ccc(OC)cc1 (configuration not stated)	inactive	–
Cc1cc(C)c2c(CC(=O)N(CCC#N)Cc3cccnc3)coc2c1	inconclusive: 25.9 µM [falling, partial curve, poor fit]	–
Cc1cc(NC(=O)CSc2nc3c([nH]c4ccccc43)c(=O)n2-c2cccc(C(F)(F)F)c2)no1	inactive	–
O=C(C[C@@H]1C/C=C\CCC(=O)OC[C@@H]2CCCN2C1=O)NCCO	inactive	–
O=C(NCC(c1cccnc1)N1CCc2ccccc21)c1ccc(F)cc1 (configuration not stated)	inconclusive: 29.1 µM [activator, single point]	–
Cc1ccccc1-c1cc(C(=O)NCc2cccc(Br)c2)n(CC2CC(c3cccnc3)=NO2)n1 (configuration not stated)	inconclusive: 18.4 µM [falling, partial curve]	–
O=C(/C=C/c1ccc(Cl)cc1)NC(=S)Nc1ccc(NC(=O)c2ccco2)cc1	active: 0.82 µM	–
Cc1cc(C)c2c(c1)cc(C)c1nnc(SCC(=O)Nc3cc(C)on3)n12	inconclusive: 3.26 µM [falling, partial curve, poor fit]	–
COc1ccc2c(c1)c1c(c(=O)n(-c3ccccc3)c(=O)n1CC(=O)NCc1ccc(C)cc1)n2C	inconclusive: 23.1 µM [activator, partial curve]	–
CC(C)COC(=O)c1nnsc1NC(=O)Nc1ccccc1	inconclusive: 3.26 µM [falling, partial curve, poor fit]	–
CSc1nn(Cc2cccc(Cl)c2)c(N(C(C)=O)C(C)=O)c1S(=O)(=O)c1ccccc1	inconclusive: 16.4 µM [falling, single point]	–
Clc1ccc(C(c2nnnn2C2CCCC2)N2CCN(Cc3ccncc3)CC2)cc1 (configuration not stated)	inactive	–
COc1ccc(CC(=O)N(Cc2nc(-c3ccc(C)cc3)no2)C(C)C)cc1	inconclusive: 29.1 µM [falling, single point]	–
COc1ccc(OCC(=O)Nc2nc3ccccc3[nH]2)cc1	inconclusive: 23.1 µM [activator, partial curve, poor fit]	–
CC(C)(C)C(=O)Nc1nc2c(s1)CN(Cc1ccccc1)CC2	inconclusive: 2.91 µM [activator, full curve]	–
O=S(=O)(Nc1cccc(Oc2ccc(Cl)cc2)n1)c1ccc(F)cc1	inconclusive: 25.9 µM [falling, single point]	–
COc1cc(CCc2ccccc2)c(C(=O)O)c(O)c1CC=C(C)C	inconclusive: 20.6 µM [falling, partial curve, poor fit]	–
CC(C)CCNC(=O)Cc1csc(-c2ccccc2)n1	inconclusive: 29.1 µM [activator, partial curve, poor fit]	–

Structure (SMILES)	Potency	activity change, negative = inhibition
O=c1[nH]c(COc2ccc(Br)cc2Cl)nc2ccccc12	inconclusive: 6.51 µM [activator, single point]	–
O=C(CCc1nc2ccccc2c(=O)[nH]1)NCc1ccccn1	inconclusive: 32.6 µM [falling, partial curve, poor fit]	–
COC(=O)c1c(NC(=O)C2COc3ccccc3O2)sc2c1CCN(Cc1ccccc1)C2 (configuration not stated)	inactive	–
COCCOC(=O)/C(=C\c1cc(C(C)(C)C)c(O)c(C(C)(C)C)c1)C(C)=O	inconclusive: 29.1 µM [falling, single point]	–
CCOc1ccc2nc(C)cc(Nc3cccc([N+](=O)[O-])c3)c2c1	inactive	–
O=C(O)c1ccc2c(=O)n(-c3ccccc3F)c(=S)[nH]c2c1	inactive	–
CCCCNC(=O)c1cnc2sc(N3CCCCCC3)nn2c1=O	inactive	–
COc1ccc(S(=O)(=O)Nc2ccc(O)c3ccccc23)cc1	inactive	–
Cc1cc(C)c(NC(=O)C(=O)NCC(c2cccnc2)N2CCN(Cc3ccccc3)CC2)c(C)c1 (configuration not stated)	inactive	–
O=C(COc1ccc(F)cc1Cl)NC1CCCCCC1	inconclusive: 2.59 µM [activator, partial curve]	–
COc1ccc2nc(NC(=O)c3cccs3)sc2c1	inconclusive: 2.59 µM [activator, full curve]	–
Cn1c(O)c(C=Nc2ccc(Br)cc2)sc1=O	inconclusive: 4.61 µM [activator, full curve]	–
CCC(C(=O)Nc1ccc(C(=O)OC)cc1)n1nc(-c2ccc(C)c(C)c2)ccc1=O (configuration not stated)	inconclusive: 23.1 µM [falling, single point]	–
Fc1ccc(/C=N/n2cnn(Cc3ccccc3Cl)c2=S)cc1	inconclusive: 16.4 µM [activator, single point]	–
CCNc1nc(N)nc(Oc2ccc(C(=O)OC)cc2)n1	inconclusive: 4.61 µM [activator, full curve]	–
COc1cc(OC)cc(C(=O)Nc2cc(-c3nc4cccnc4s3)ccc2C)c1	inactive	–
COc1cc(/C=C2\C(=N)N3N=C(S(C)(=O)=O)SC3=NC2=O)ccc1OC(=O)c1ccco1	inactive	–
Cc1onc(-c2ccccc2)c1CNS(=O)(=O)c1ccccc1	inactive	–
CCCCCCc1cc2cc(-c3nnc(-c4ccccc4O)o3)c(=O)oc2cc1O	inactive	–
C[C@@H](Nc1nc(-c2ccccc2)nc2c1oc1ccccc12)C(=O)O	inconclusive: 29.1 µM [falling, single point]	–
Cc1nn(-c2ccccc2)c(C)c1/C=N/n1c(-c2ccncc2)n[nH]c1=S	inconclusive: 32.6 µM [activator, single point]	–
